Values from PubChem BioAssay AID1259254 (NCATS, 2017).
In all, the deposit lists about 59,000 reagents; below is a random part of them. Over the whole deposit, about 1,550 (2.6%) were called active. 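G2 share is only a proxy for re-replication; each gene was hit by three separate siRNAs, and active genes were retested.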 Raw values are not corrected between plates. Reagents against one gene are numbered here. No sequences are given here. The record does not give: the amount of reagent.

Purpose: 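Gene knock-downs that lead to re-replication, shown by excess G2 DNA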 (primary screen)
Cells: human HCT116 colorectal cancer cells
Reagents: single siRNA against human genes
Time to read-out: 3 days
Measurement: 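Nuclei stained with Hoechst and imaged; cell-cycle phase assigned by DNA content; G2 share scaled per plate, non-targeting siRNA 0%, GMNN siRNA 100%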
Reading the numbers: G2 robust z-score and G2 cells, % of GMNN control: higher = more G2 cells, more excess DNA replication; raw share of cells in G2: higher = larger share of cells with G2 DNA content
Active means: 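Active siRNAs have a G2 robust z of 5 or more median absolute deviations over the median, which in these data means about 38% or higher of GMNN control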

| gene symbol | reagent no. | G2 robust z-score | G2 cells, % of GMNN control | raw share of cells in G2 (%) | Call |
| --- | --- | --- | --- | --- | --- |
| DLX5 | 1 | 0.803 | 8.61 | 8.04 | inactive |
| DLX5 | 2 | 6.81 | 50.9 | 23.6 | active |
| DLX5 | 3 | -0.202 | 1.55 | 4.63 | inactive |
| PPL | 1 | 0.602 | 7.2 | 8.04 | inactive |
| PPL | 2 | 0.574 | 7.01 | 6.99 | inactive |
| PPL | 3 | 0.0308 | 3.18 | 4.5 | inactive |
| PROX2 | 1 | 7.42 | 55.1 | 29.7 | active |
| PROX2 | 2 | 1.26 | 11.9 | 9.59 | inactive |
| PROX2 | 3 | 1.04 | 10.3 | 8.03 | inactive |
| KRABD2 | 1 | 1.26 | 11.9 | 8.85 | inactive |
| KRABD2 | 2 | -0.138 | 2 | 3.93 | inactive |
| KRABD2 | 3 | -0.945 | -3.68 | 0.744 | inactive |

Laid out differently: 3 of the entries above
PPL #1
- G2 robust z-score: 0.602
- G2 cells, % of GMNN control: 7.2
- raw share of cells in G2 (%): 8.04
- Call: inactive

PPL #2
- G2 robust z-score: 0.574
- G2 cells, % of GMNN control: 7.01
- raw share of cells in G2 (%): 6.99
- Call: inactive

PPL #3
- G2 robust z-score: 0.0308
- G2 cells, % of GMNN control: 3.18
- raw share of cells in G2 (%): 4.5
- Call: inactive

More results follow:
| gene symbol | reagent no. | G2 robust z-score | G2 cells, % of GMNN control | raw share of cells in G2 (%) | Call |
| --- | --- | --- | --- | --- | --- |
| MUC13 | 1 | -0.372 | 0.349 | 4.48 | inactive |
| MUC13 | 2 | 0.954 | 9.68 | 9.08 | inactive |
| MUC13 | 3 | -0.377 | 0.313 | 3.13 | inactive |
| FICD | 1 | 0.069 | 3.45 | 6.34 | inactive |
| FICD | 2 | 0.403 | 5.81 | 6.53 | inactive |
| FICD | 3 | 0.126 | 3.85 | 4.62 | inactive |
| KIAA1328 | 1 | 1.58 | 14.1 | 9.91 | inactive |
| KIAA1328 | 2 | -0.121 | 2.12 | 5.47 | inactive |
| KIAA1328 | 3 | -0.869 | -3.15 | 2.03 | inactive |
| ID2 | 1 | -0.428 | -0.0439 | 3.44 | inactive |
| ID2 | 2 | 1.93 | 16.6 | 12.6 | inactive |
| ID2 | 3 | 1.56 | 14 | 8.18 | inactive |
| DDRGK1 | 1 | -0.269 | 1.07 | 5.05 | inactive |
| DDRGK1 | 2 | -0.933 | -3.6 | 3 | inactive |
| DDRGK1 | 3 | -1.52 | -7.7 | 0.665 | inactive |
| ZNF280A | 1 | 3.51 | 27.6 | 12.6 | inactive |
| ZNF280A | 2 | 1.67 | 14.7 | 8.26 | inactive |
| ZNF280A | 3 | -0.501 | -0.558 | 3.33 | inactive |
